At least one compound was matched to its structure with a doubt left.
Test system: anti-dig
Assay: Detection of hapten on TANTAGEL beads with anti-dig and AP-coupled secondary antibody
Assay type: binding, mouse
Details: for Blue color on beads: anti-dig 1 microgram/ml
Description: Ninety (90) micrometer TANTAGEL-amine beads were mixed with dig-NHS ester at different concentrations to covalently label the beads with dig. Dig-NHS was added in amounts sufficient to label 100%, 10%, 1%, 0.1%, 0.01% and 0.001% of the amino groups. The remaining amino groups were capped with acetic anhydride, and the beads were washed.
Dig-labeled beads were incubated with anti-dig (1 microgram/ml) in the presence of BSA and buffer. The beads were washed, incubated with alkaline phosphatase (AP)-coupled goat anti-mouse antibody, and washed again. Then a chromogenic precipitating substrate (commercially available) for detecting AP was added. Blue color on the beads indicates the presence of AP, and thus effective detection of the dig hapten by antibody.

## C[C@]12CC[C@H](O)C[C@H]1CC[C@@H]1[C@@H]2C[C@@H](O)[C@]2(C)[C@@H](C3=CC(=O)OC3)CC[C@]12O [dig, digoxigenin]
0.01% of amino groups labeled
  Blue color on beads: clearly visible
Below 0.01% of amino groups labeled
  Staining of beads: same as unlabeled beads
Down to 0.1% of amino groups labeled
  Blue color on beads: bright

Source: US6541203B2, “Detecting structural or synthetic information about chemical compounds” (President and Fellows of Harvard College, priority 1998, dated 2003)
